Experimental data reported in publication doi:10.1101/2024.05.23.595491 (bioRxiv, 2024).

T1: AChRα cytoplasmic domain peptide P2 (mouse)
T1 sequence (peptide, N-terminal biotin): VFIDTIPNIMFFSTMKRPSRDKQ

T2: αDB1 peptide Y713-P (phosphorylated Y713) (mouse)
T2 sequence (peptide, phosphotyrosine at Y713 (pY); N-terminal DEST–Biotin–Ahx; C-terminal amide (NH2)): TQPEDGNYENESVRQ


Assays:
[1] = molecular target: T1, AChRα cytoplasmic domain peptide P2 (mouse); experiment: pull-down
[2] = molecular target: T2, αDB1 peptide Y713-P (phosphorylated Y713) (mouse); experiment: pull-down
syntrophin-1-GFP (mouse) = experiment: co-IP

Row | binding [1] | binding [2] | binding (syntrophin-1-GFP (mouse)) | Molecule
1 | binds | no binding | – | Proline-rich domain of SH3BP2 fused to FLAG (mouse) (domain or fragment)
2 | – | – | binds | GST-mGFP-SH3BP2-FLAG (natural protein) MAAEEMQWPVPMKAIGAQNLLTMPGGVAKAGYLHKKGGTQLQLLKWPLRFVIIHKRCIYYFKSSTSASPQGAFSLSGYNRVMRAAEETTSNNVFPFKIIHISKKHRTWFFSASSEDERKSWMAFVRREIGHFHEKKELPLDTSDSSSDTDSFYGAVERPIDISLSSYPMDNEDYEHEDEDDSYLEPDSPGPMKLEDALTYPPAYPPPPVPVPRKPAFSDLPRAHSFTSKSPSPLLPPPPPKRGLPDTGSAPEDAKDALGLRRVEPGLRVPATPRRMSDPPMSNVPTVPNLRKHPCFRDSVNPGLEPWTPGHGTSSVSSSTTMAVATSRNCDKLKSFHLSSRGPPTSEPPPVPANKPKFLKIAEEPSPREAAKFAPVPPVAPRPPVQKMPMPEATVRPAVLPRPENTPLPHLQRSPPDGQSFRGFSFEKARQPSQADTGEEDSDEDYEKVPLPNSVFVNTTESCEVERLFKATDPRGEPQDGLYCIRNSSTKSGKVLVVWDESSNKVRNYRIFEKDSKFYLEGEVLFASVGSMVEHYHTHVLPSHQSLLLRHPYGYAGPR

No constants are given. Whether binding was seen depends on the method and setting. In cells and extracts the contact can be indirect. For part of these data: A result given as binding can be weak or reduced; the word gives no strength. For part of these data: Sequences can lack the tags named with a protein.
